Tested on: Staphylococcus aureus
Assay: microbe, parasite or virus in culture

**Q.** For `CN[C@H](CC(C)C)C(=O)N[C@H]1C(=O)N[C@@H](CC(N)=O)C(=O)N[C@H]2C(=O)N[C@H]3C(=O)N[C@H](C(=O)N[C@H](C(=O)O)c4cc(O)cc(O)c4-c4cc3ccc4O)[C@H](O)c3ccc(c(Cl)c3)Oc3cc2cc(c3O[C@@H]2O[C@H](CO)[C@@H](O)[C@H](O)[C@H]2O[C@H]2C[C@](C)(N)[C@H](O)[C@H](C)O2)Oc2ccc(cc2Cl)[C@H]1O` [VANCOMYCIN], which MIC is on record?
**A.** Its MIC is ≥ 4 µg/mL.

Source: ChEMBL document CHEMBL1649559, “Prospective comparison of the clinical impacts of heterogeneous vancomycin-intermediate methicillin-resistant Staphylococcus aureus (MRSA) and vancomycin-susceptible MRSA” (2009)
